Data on 11 molecules can be found in US20240115706A1.

In test [1] the target is human GUCY2C-rCD4 fusion protein (Homo sapiens (human); Rattus norvegicus). The experiment in a line: ELISA (DELFIA).
The target is the same in test [2]. The experiment in a line: ELISA (DELFIA); ELISA, statement on all 18 scFvs: binds.

Substitutions are numbered along the chain they refer to. These are yes or no findings as the source states them, for the method shown. Some results given as binding are weak or reduced against the parent protein; the word gives no strength.

B1: scFv A05 (scFv)
scFv: QVQLVQSGAEVKKPGSSVKVSCKASGGTFSSYTITWVRQAPGQGLEWMGRIIPVLGIANYAQKFQGRVTITADKSTSTAYMELSSLRSEDTAVYYCARDYSSSWNSMDVWGQGTLVTVSSGGGGSGGGGSGGGASQSGLTQPRSVSGSPGQSVTISCTGTSSDVGGYNYVSWYQQHPGKAPKLMIYDVSKRPSGVPDRFSGSKSGNTASLTVSGLHAEDEADYYCSSYAGSNNFVFGTGTKVTVL
In the case of B1, the binding entry in test [1] was “binds”.

B2: scFv A06 (scFv)
scFv: B1 scFv with S30G, T35S, V54I, G166A, D187E, G201A, H216Q, F234W, T238G, V242L
B2: the binding entry in test [1] is reported as “binds”.

B3: scFv A08 (scFv)
scFv: EVQLLESGGGLVQPGGSLRLSCAASGFTFSSYWMSWVRQAPGKGLEWVANIKQDGSEKYYVDSVKGRFTISRDNAKNSLYLQMNSLRAEDTAVYYCAKAPWYSSSPTPYGMDVWGQGTLVTVSSGGGGSGGGGSGGGASDIQMTQSPSSLSASVGDRVTITCQASQDISNYLNWYQQKPGKAPRRLIYGASTLMSGVPSRFSGSGSGTDFTLTISSLQPEDFATYYCQQSYSTPLTFGGGTKVEIK
As to B3, in test [2], the binding entry was “binds”.

B4: scFv B12 (scFv)
scFv: QVQLVESGGGLVKPGGSLRLSCAASGFTFSSYSMNWVRQAPGKGLEWVSVIYSGGSTHYADSVKGRFTISRHNSKNTLYLQMNSLRAEDTAVYYCARGAGTLNAFDIWGQGTTVTVSSGGGGSGGGGSGGGASQSGLTQPPSTSGSPGQSVTISCTGTSSDVGAYSYVSWYQQHPGKAPKLLIYAVTKRPSGVPDRFSGSKSGNTASLTVSGLQDEDEADYYCSSFAGGSTLVFGGGTKLTVL
B4: the binding entry in test [1] is recorded as “binds”.

B5: scFv B01 (scFv)
scFv: EVQLVQPGAEVKKPGSSVKVSCKASGGTLSSYAISWVRQAPGQGLEWMGRIIPILGITNYAQKFQGRVTITADKSTSTAYMELSSLRSEDTAVYFCARDQRPASMDVWGQGTLVTVSSGGGGSGGGGSGGGASQSGLTQPASVSGSPGQSITISCTGTSSDVGGYNYVSWYQQHPGKAPKLMIYEVSNRPSGVSNRFSGSKSGNTASLTISGLQAEDEADYYCSTVTSLSTYVFGTGTKLTVL
With B5, in test [1], the binding result is on record as “binds”.

B6: scFv B07 (scFv)
scFv: EVQLVQSGAEVKRPGSSVKVSCKASGYTFTSYYMHWVRQAPGQGLEWMGIINPSGGSTSYAQKFQGRVTMTRDTSTSTVYMELSSLRSEDTAVYYCAAGTYSSGWTIDYWGQGTTVTVSSGGGGSGGGGSGGGASDIVMTQSPLSLPVTLGQPASISCRSSQSLVYTDGNTYLNWFQQRPGQSPRRLIYKVSNRDSGVPDRFSGSGSGTDFTLKISRVEAEDVGIYYCMHSKQWPPTFGGGTKVEIK
Consider B6, for which the binding result in test [1] was “binds”.

B7: scFv A02 (scFv)
scFv: EVQLVQPGAEVKKPGSSVKVSCKASGGTLSSYAISWVRQAPGQGLEWMGRIIPILGITNYAQKFQGRVTITADKSTSTAYMELSSLRSEDTAVYFCARDQRPASMDVWGQGTLVTVSSGGGGSGGGGSGGGASQSELTQPASVSGSPGQSITISCTGTSSDVGGYIYVSWYQQHPGKVPKLMIHDVSHRPSGVSNRFSGSRSGNTASLTISGLQAEDEADYFCSSYAGSNNYVFGTGTKVTVL
For the molecule B7, the binding entry in test [1] is listed as “binds”.

B8: scFv A12 (scFv)
scFv: B7 scFv with A227T, G228S
Turning to B8, the binding result in test [1] is “binds”.

B9: scFv A04 (scFv)
scFv: B7 scFv with A227T, G228S, V233Y
Consider B9, for which the binding entry in test [1] was “binds”.

B10: scFv A03 (scFv)
scFv: QVQLVQSGAEVKKPGSSVKVSCKASGGTFSSYTISWVRQAPGQELEWMGRIIPILGIANYAQKFQGRVTITADKSTSTAYMELSSLRSEDTAVYYCARDYSSSWNSMDVWGQGTLVTVSSGGGGSGGGGSGGGASQSGLTQPPSASGSPGQSVTISCTGTSSDIGYYHYVSWYQQHPGKAPKLMIYEDSKRPSGISNRFSGSKSGTTASLTVSGLQAEDEAHYYCSSFTSRSTWVFGGGTQLTVL
Regarding B10, the binding entry in test [1] is “binds”.

B11: scFv C02 (scFv)
scFv: QVQLVQSGAEVKKPGSSVKVSCKASGGTFSSYTISWVRQAPGQGLEWMGRIIPILGIANYAQKFQGRVTITADKSTSTAYMELSSLRSEDTAVYYCARDRSYNWLDPWGRGTLVTVSSGGGGSGGGGSGGGASQSALTQPVSVSGSPGQSITISCTGTISDVGDYNYVSWYQQHPGKAPKLMIYDVNNRPSGVSNRFSGSKSGNTASLTISGLQAEDEADYYCSSYTSSSTLVFGGGTKLTVL
With B11, in test [1], the binding result was “binds”.
